# From paper PMC7819943, “Rice protein-binding microarrays: a tool to detect cis-acting elements near promoter regions in rice”
# The other results are listed elsewhere or left out.
# Target: T1, OsSMF1 (Oryza sativa, UniProt Q6ZLB0 1-436)
# T1 sequence: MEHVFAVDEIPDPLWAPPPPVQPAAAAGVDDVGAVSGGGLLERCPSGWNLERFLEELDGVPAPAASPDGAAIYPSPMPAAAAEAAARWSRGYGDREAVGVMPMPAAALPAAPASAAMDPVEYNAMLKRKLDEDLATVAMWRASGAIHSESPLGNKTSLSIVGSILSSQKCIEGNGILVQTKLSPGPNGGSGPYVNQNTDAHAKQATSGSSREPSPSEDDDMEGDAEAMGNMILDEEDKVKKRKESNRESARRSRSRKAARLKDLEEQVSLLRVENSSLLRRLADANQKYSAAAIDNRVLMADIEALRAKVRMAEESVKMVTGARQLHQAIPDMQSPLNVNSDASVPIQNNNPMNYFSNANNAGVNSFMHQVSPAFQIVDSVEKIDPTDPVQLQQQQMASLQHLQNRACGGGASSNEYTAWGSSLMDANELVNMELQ
# Test: protein-binding microarray (RPBM); PBS, 2% BSA, 51.3 ng/ul salmon testes DNA, 50 uM zinc acetate, 200 nM TF, 25 C, 1 h; high values mean tight binding
# Conditions: protein: recombinant; tags: N-terminal polyhistidine and DsRed monomer fusion (pET32a); chain copies: 2; label: CyDye5-dUTP incorporated in the synthesized complementary strand; 3' TTTTT single-stranded linker to array surface; dsDNA, one strand shown
# Summary of the method: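 Binding signal is reported as fluorescence intensity per feature (arbitrary units) from an Axon 4000B scanner. Incubation used 200 nM of each Ni–NTA-purified, N-terminally polyhistidine- and DsRed-fused transcription factor from E. coli BL21-CodonPlus on a double-stranded custom Agilent array for 1 h at 25 °C, with 50 µM zinc acetate in the buffer, followed by washing.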
row,Sequence,binding signal
1,GCATCCGGTGAGATCGATCTGATCGGATCGATCGATCATGCGGAGTCACCTAGTGCAG,4600 fluorescence intensity (a.u.)
2,TGGAGTAGTGACTCGTGACGCAGCAACCGTTCGTCGCGCCCGGAGTCACCTAGTGCAG,11400 fluorescence intensity (a.u.)
3,GAATCCTTCCAACCCGGCCCACCCGTAAACCGACCTATAGCGGAGTCACCTAGTGCAG,3460 fluorescence intensity (a.u.)
4,CAAATCAACTGGCACACTAGTATACCCGAAGGCGAGTTTTCGGAGTCACCTAGTGCAG,3280 fluorescence intensity (a.u.)
5,CAACACTGCAACAGACCATACACGTCCTTAGCATGTTGCACGGAGTCACCTAGTGCAG,4400 fluorescence intensity (a.u.)
6,CAGTATATTCCAAGTTAACAGCTGTGCAGGACAAATCCACCGGAGTCACCTAGTGCAG,3260 fluorescence intensity (a.u.)
7,GGTCTCTGCGCTGTCGGTGGCGCTGCTATCGTGACGACGTCGGAGTCACCTAGTGCAG,3790 fluorescence intensity (a.u.)
8,TCAATCAACATGTATGTTGATGAATCGGATTCGTTCCGGTCGGAGTCACCTAGTGCAG,4420 fluorescence intensity (a.u.)
9,TCCTAATAAACTCCTCCAATTCCTCGACGAATCAGTTTTCCGGAGTCACCTAGTGCAG,11800 fluorescence intensity (a.u.)
10,GGCATCGTGATGAAGAACGTCTCCAATCCAATCATCATCGCGGAGTCACCTAGTGCAG,3150 fluorescence intensity (a.u.)
11,CCTCATATTCCAAACTGACGGCGTCATCGCTGTCAAACGGCGGAGTCACCTAGTGCAG,3300 fluorescence intensity (a.u.)
12,GCCATCCAACTATTTTCATGGATCAACATCATAGTAGTATCGGAGTCACCTAGTGCAG,3140 fluorescence intensity (a.u.)
13,ACAAATAAATCCTTAAATACACTAACTATCGAATGCACGCCGGAGTCACCTAGTGCAG,41300 fluorescence intensity (a.u.)
14,CCGCAGTCAAAATCTTGGAGGCCAGCTCAGATCTGTACTCCGGAGTCACCTAGTGCAG,3630 fluorescence intensity (a.u.)
15,TTGCCGGTGTGTAGACCTTGCTCCCTTGCACTTTGGTGTGCGGAGTCACCTAGTGCAG,3470 fluorescence intensity (a.u.)
16,CAAACACACAAGCGCCCACTCGTCACACGCTATACGGCACCGGAGTCACCTAGTGCAG,3690 fluorescence intensity (a.u.)
17,CCTTTCAATCGAGGGTTGCCCGCCACGTAGCAGTGCGGTCCGGAGTCACCTAGTGCAG,10300 fluorescence intensity (a.u.)
18,GTAGCGGGCGCGATGCGTCACCGTTCTCTTGCTGCTGCTGCGGAGTCACCTAGTGCAG,8990 fluorescence intensity (a.u.)
19,TGGAAGGAAATTAGTGCGTGCAAATGCGGATTCCGATATGCGGAGTCACCTAGTGCAG,3190 fluorescence intensity (a.u.)
20,TGGATTGGACACGTAAACGTGGAACGAAGACTCGGTCAATCGGAGTCACCTAGTGCAG,5100 fluorescence intensity (a.u.)
21,GCCCGGCCCATCACCGTCACCCTCCCTCGTGTCCTCTTCACGGAGTCACCTAGTGCAG,3160 fluorescence intensity (a.u.)

row,Sequence,binding signal
1,ACACTACTCCGTTCGTTTATTTTGACGTCATCGTATCTAACGGAGTCACCTAGTGCAG,9000 fluorescence intensity (a.u.)
2,GGCTGGCGGGATCGGGCACGGCGATGATGTGGCGGCGGCGCGGAGTCACCTAGTGCAG,10500 fluorescence intensity (a.u.)
3,GACGGTGCCGGAGATGACGCAGCTCCGGTAGAACTGGCGGCGGAGTCACCTAGTGCAG,3980 fluorescence intensity (a.u.)
4,ATTGTGGCATGATTGCTGATTGCCATGGTTGACCTATATACGGAGTCACCTAGTGCAG,3200 fluorescence intensity (a.u.)
5,TCTTCCCTTGCTGTGTCATCCAGTCCAATGGGTTAAACGGCGGAGTCACCTAGTGCAG,9530 fluorescence intensity (a.u.)
6,CCTCCGCTTCTGCTTCATCGCTGATGATCAGCTAATCGTCCGGAGTCACCTAGTGCAG,3520 fluorescence intensity (a.u.)
7,CCGGTTGTGGCTGGCCCTTTCGTCATCGCTGGTTGTGGTCCGGAGTCACCTAGTGCAG,4340 fluorescence intensity (a.u.)
8,TACGCGATCTGATCCGCCCTTTTCCTCCGTCCCTGAGCTGCGGAGTCACCTAGTGCAG,28900 fluorescence intensity (a.u.)
9,ACCAGTGACTCATAGCATGACACATCAGTGTTAGTAAGAACGGAGTCACCTAGTGCAG,9600 fluorescence intensity (a.u.)
10,TGAAGTCAACGAGACAACTAGTAGTAGTTGTCCTTGAGACCGGAGTCACCTAGTGCAG,3530 fluorescence intensity (a.u.)
11,TCGCCGGCGCCCATGGAAGACACGGCGGTGGTGGCGTGGGCGGAGTCACCTAGTGCAG,3140 fluorescence intensity (a.u.)
12,ATGTCGCAATGATTTTGACGGCCGACCGATCGGACCTTTACGGAGTCACCTAGTGCAG,3310 fluorescence intensity (a.u.)
13,TTTATGTGATTGTCATTTATTTTACTGTGACTTGATTCATCGGAGTCACCTAGTGCAG,3570 fluorescence intensity (a.u.)
14,CATGCGTGAAATGTGACTAATATGTCTACTAATTGTCATCCGGAGTCACCTAGTGCAG,4400 fluorescence intensity (a.u.)
15,GGAGTTTGGTTGGTTGGTGGTGTTCTTGACGGGGCATGGACGGAGTCACCTAGTGCAG,4790 fluorescence intensity (a.u.)
16,ACGTTGTATGTATGATCCACCGTGGCGTGGCTTTGAAGAACGGAGTCACCTAGTGCAG,4140 fluorescence intensity (a.u.)
17,CGCGTGGAGCGGGCCCAGGTAGGACACGTGTCGCGCGCAGCGGAGTCACCTAGTGCAG,13400 fluorescence intensity (a.u.)
18,GTCAGCCTCAGCTGAACTGTCAGTCGGTTACACTGCGTGGCGGAGTCACCTAGTGCAG,3770 fluorescence intensity (a.u.)
19,GATCCTTACCCGTTCCTCTTGACATCACCCGTTGCCGTTCCGGAGTCACCTAGTGCAG,3590 fluorescence intensity (a.u.)
20,CAACCTGTCATACACACATAACTTTTCAGTTACATCATCTCGGAGTCACCTAGTGCAG,3720 fluorescence intensity (a.u.)
21,AAATTAGCTAATACAAAAGTATCGGGTCAGGCATGGGTTACGGAGTCACCTAGTGCAG,3180 fluorescence intensity (a.u.)

# 2 entries drawn at random from the list so far:
row,Sequence,binding signal
7,CCGGTTGTGGCTGGCCCTTTCGTCATCGCTGGTTGTGGTCCGGAGTCACCTAGTGCAG,4340 fluorescence intensity (a.u.)
16,ACGTTGTATGTATGATCCACCGTGGCGTGGCTTTGAAGAACGGAGTCACCTAGTGCAG,4140 fluorescence intensity (a.u.)
